According to PMC10995196:
Results are given in words; binding and its absence hold for the method and conditions named. Binding seen in cells or lysates may run through a third protein. Some entries that bind do so weakly or less than the wild type.

Sequences of proteins named here, by UniProt entry; tags and fusion partners are left off.
UniProt P67809: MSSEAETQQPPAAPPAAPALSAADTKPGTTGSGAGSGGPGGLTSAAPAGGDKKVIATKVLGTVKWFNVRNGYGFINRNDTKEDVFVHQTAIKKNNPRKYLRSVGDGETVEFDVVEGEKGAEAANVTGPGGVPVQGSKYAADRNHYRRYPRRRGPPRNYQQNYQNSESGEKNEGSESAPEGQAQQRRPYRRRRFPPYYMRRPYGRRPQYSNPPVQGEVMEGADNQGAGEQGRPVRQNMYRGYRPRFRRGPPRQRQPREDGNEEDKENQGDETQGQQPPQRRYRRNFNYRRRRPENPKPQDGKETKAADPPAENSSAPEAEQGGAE

Biological target: Y-box binding protein-1 (YBX1) (human (endogenous in CFPAC-1, SW1990 and PANC-1)) (UniProt P67809)
Experiment: co-IP; immunoprecipitation with a YBX1 antibody, western blot for YBX1, OGT and O-GlcNAcylation; CFPAC-1 and SW1990 cells with GFPT2 knockdown, PANC-1 cells with GFPT2 overexpression and OSMI-1 (40 μm) pretreatment

binding: binds
B1: O-GlcNAc transferase (OGT) (enzyme, UniProt O15294 1-1046)
chain: MASSVGNVADSTEPTKRMLSFQGLAELAHREYQAGDFEAAERHCMQLWRQEPDNTGVLLLLSSIHFQCRRLDRSAHFSTLAIKQNPLLAEAYSNLGNVYKERGQLQEAIEHYRHALRLKPDFIDGYINLAAALVAAGDMEGAVQAYVSALQYNPDLYCVRSDLGNLLKALGRLEEAKACYLKAIETQPNFAVAWSNLGCVFNAQGEIWLAIHHFEKAVTLDPNFLDAYINLGNVLKEARIFDRAVAAYLRALSLSPNHAVVHGNLACVYYEQGLIDLAIDTYRRAIELQPHFPDAYCNLANALKEKGSVAEAEDCYNTALRLCPTHADSLNNLANIKREQGNIEEAVRLYRKALEVFPEFAAAHSNLASVLQQQGKLQEALMHYKEAIRISPTFADAYSNMGNTLKEMQDVQGALQCYTRAIQINPAFADAHSNLASIHKDSGNIPEAIASYRTALKLKPDFPDAYCNLAHCLQIVCDWTDYDERMKKLVSIVADQLEKNRLPSVHPHHSMLYPLSHGFRKAIAERHGNLCLDKINVLHKPPYEHPKDLKLSDGRLRVGYVSSDFGNHPTSHLMQSIPGMHNPDKFEVFCYALSPDDGTNFRVKVMAEANHFIDLSQIPCNGKAADRIHQDGIHILVNMNGYTKGARNELFALRPAPIQAMWLGYPGTSGALFMDYIITDQETSPAEVAEQYSEKLAYMPHTFFIGDHANMFPHLKKKAVIDFKSNGHIYDNRIVLNGIDLKAFLDSLPDVKIVKMKCPDGGDNADSSNTALNMPVIPMNTIAEAVIEMINRGQIQITINGFSISNGLATTQINNKAATGEEVPRTIIVTTRSQYGLPEDAIVYCNFNQLYKIDPSTLQMWANILKRVPNSVLWLLRFPAVGEPNIQQYAQNMGLPQNRIIFSPVAPKEEHVRRGQLADVCLDTPLCNGHTTGMDVLWAGTPMVTMPGETLASRVAASQLTCLGCLELIAKNRQEYEDIAVKLGTDLEYLKKVRGKVWKQRISSPLFNTKQYTMELERLYLQMWEHYAAGNKPDHMIKPVEVTESA
